# Test results as given in patent publication WO2019109974A1.
# Chains of the proteins cited; added tags and fusions are not shown. Lines headed by an entry give the natural chain unless they say otherwise; changes in a name come on top. Residues count along the entry.
# UniProt Q9NZQ7, residues 19-239: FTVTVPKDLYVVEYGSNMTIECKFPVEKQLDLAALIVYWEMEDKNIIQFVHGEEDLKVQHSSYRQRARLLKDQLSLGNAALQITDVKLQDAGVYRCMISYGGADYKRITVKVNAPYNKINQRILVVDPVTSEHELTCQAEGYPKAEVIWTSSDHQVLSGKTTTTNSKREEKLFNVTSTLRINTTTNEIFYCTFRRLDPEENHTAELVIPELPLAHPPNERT
# Results are given in words; binding and its absence hold for the method and conditions named. Some entries that bind do so weakly or less than the wild type.
# Target: 人PD-L1抗原 (hPD-L1-his, Sino biological 10084-H08H-200) (human) (UniProt Q9NZQ7)
# Assay: SPR (Biacore T200), antibody captured by anti-human antibody on CM5, PD-L1-his as analyte
binder,measurement,value
"hu-Chi1-3.4 (antibody, human IgG1, kappa, V domains shown) VH: QVQLQESGPGLVKPSQTLSLTCTVSGYSITSDYWNWIRQHPGKGLEYIGYISYTGSTYYNPSLKSRVTISRDTSKNQFSLKLSSVTAADTAVYYCARGEAWDRRTLDYWGQGTLVTVSS VL: DFQMTQSPSSLSASVGDRVTITCRASQDITNYLNWYQQKPDKAVKLLIYYTSRLHSGVPSRFSGSGSGTDFTLTISSLQPEDFATYYCQQVYTLPWTFGQGTKLEIKR",binding,binds
